Laboratory results published in the supplement of paper PMC3682954.
Counter-ions that a name gives are not always drawn. ± gives the standard deviation of the averaged measurements. The list shows a part of the results. Most values come without repeats; read them as rough.

System: RAW 264.7
Experiment: HMGB1-induced TNF-alpha production relative to HMGB1-stimulated control; higher = more TNF-alpha secretion (less inhibition)
Conditions: stimulus: HMGB1 5 ug/ml, 18 h
[1] = compound concentration: 1 ug/ml

Row | SMILES | HMGB1-induced TNF-alpha production (compound concentration: 3 uM) | HMGB1-induced TNF-alpha production [1]
1 | CCCCC/C=C\C[C@@H](O)/C=C/c1cccc(C[C@@H](O)CCCCO)n1 | 94% | 
2 | COc1ccc2[nH]cc(CCNC(C)=O)c2c1 [Melatonin] | 88.7 ± 4% | 77.2%
3 | O=C([O-])c1ccccc1O.[Na+] | 89.6% | 
4 | COc1cc(OC)c(C=C2C(=O)Nc3ccccc32)c(OC)c1 | 105% | 
5 | CN1CCCCC1CCN1c2ccccc2Sc2ccc([S+](C)[O-])cc21 (configuration not stated) [Mesoridazine] | 91.1 ± 23% | 
6 | CN1CCCCC1CCN1c2ccccc2Sc2ccc([S+](C)[O-])cc21 (configuration not stated) [Mesoridazine besylate] | 56.6% | 
7 | NC(=O)N/N=C/c1ccc([N+](=O)[O-])o1 [Nitrofural] | 64.6% | 
8 | NC(=O)N/N=C/c1ccc([N+](=O)[O-])o1 | 83.1% | 
9 | O=C(O[C@H]1CN2CCC1CC2)N1CCc2ccccc2[C@@H]1c1ccccc1 | 66.1% | 
10 | CCCC(=O)Nc1ncnc2c1ncn2[C@@H]1O[C@@H]2COP(=O)(O)O[C@H]2[C@H]1OC(=O)CCC | 94.6% | 
11 | CCCC(=O)Nc1ncnc2c1ncn2[C@@H]1O[C@@H]2COP(=O)(O)O[C@H]2[C@H]1OC(=O)CCC [Bucladesine sodium salt] | 139% | 
12 | CN(C)CCC[C@@]1(c2ccc(F)cc2)OCc2cc(C#N)ccc21 | 92.1 ± 2.5% | 
13 | CN(C)CCC[C@@]1(c2ccc(F)cc2)OCc2cc(C#N)ccc21 [Escitalopram] | 102 ± 7.8% | 
14 | CN1CCCC(n2nc(Cc3ccc(Cl)cc3)c3ccccc3c2=O)CC1 (configuration not stated) [Azelastine HCl] | 116% | 
15 | O=C(CNC(=O)c1ccc(Cl)cc1)NO | 79.5% | 
16 | CC(=O)Oc1cccc(O)c1 | 85.5% | 
17 | CCN1CCN(C(=O)N[C@@H](C(=O)N[C@@H]2C(=O)N3[C@@H]2SC(C)(C)[C@@H]3C(=O)O)c2ccccc2)C(=O)C1=O | 102% | 
18 | CCN1CCN(C(=O)N[C@@H](C(=O)N[C@@H]2C(=O)N3[C@@H]2SC(C)(C)[C@@H]3C(=O)O)c2ccccc2)C(=O)C1=O [Piperacillin] | 85% | 
19 | CCN1CCN(C(=O)N[C@@H](C(=O)N[C@@H]2C(=O)N3[C@@H]2SC(C)(C)[C@@H]3C(=O)O)c2ccccc2)C(=O)C1=O [Piperacillin sodium salt] | 92% | 
20 | CO[C@@H]1[C@@H](OC(N)=O)[C@@H](O)[C@H](Oc2ccc3c(O)c(NC(=O)c4ccc(O)c(CC=C(C)C)c4)c(=O)oc3c2C)OC1(C)C | 93.2% | 
21 | CO[C@@H]1[C@@H](OC(N)=O)[C@@H](O)[C@H](Oc2ccc3c(O)c(NC(=O)c4ccc(O)c(CC=C(C)C)c4)c(=O)oc3c2C)OC1(C)C [Novobiocin] | 85.5% | 
22 | CO[C@@H]1[C@@H](OC(N)=O)[C@@H](O)[C@H](Oc2ccc3c(O)c(NC(=O)c4ccc(O)c(CC=C(C)C)c4)c(=O)oc3c2C)OC1(C)C [Novobiocin sodium salt] | 96.4% | 72.7%
23 | CC1(C)OC(=O)NC1=O | 75.9% | 
24 | CC1(C)OC(=O)NC1=O [Dimethadione] | 126% | 
25 | N=C(N)NCC1COC2(CCCCC2)O1 (configuration not stated) [Guanadrel sulfate] | 103% | 
26 | CCC[C@H](N[C@@H](C)C(=O)N1[C@H](C(=O)O)C[C@@H]2CCCC[C@@H]21)C(=O)OCC | 96.6% | 
27 | CCC[C@H](N[C@@H](C)C(=O)N1[C@H](C(=O)O)C[C@@H]2CCCC[C@@H]21)C(=O)OCC [Perindopril] | 90.7% | 
28 | Cc1cnc(=O)[nH]c1N [5-Methylcytosine hydrochloride] |  | 82.2%

Row | SMILES | HMGB1-induced TNF-alpha production (compound concentration: 3 uM) | HMGB1-induced TNF-alpha production [1]
29 | Cn1nnnc1SCC1=C(C(=O)O)N2C(=O)[C@@H](NC(=O)[C@H](O)c3ccccc3)[C@H]2SC1 | 77.9% | 
30 | Cn1nnnc1SCC1=C(C(=O)O)N2C(=O)[C@@H](NC(=O)[C@H](O)c3ccccc3)[C@H]2SC1 [Cefamandole sodium salt] | 103% | 
31 | Nc1ccc(C(=O)NCC(=O)O)cc1 | 110% | 
32 | Nc1ccc(C(=O)NCC(=O)O)cc1 [Aminohippuric acid] | 93.4% | 
33 | COc1ccc(NS(=O)(=O)c2ccc(N)cc2)nn1 | 84.7% | 
34 | COc1ccc(NS(=O)(=O)c2ccc(N)cc2)nn1 [Sulfamethoxypyridazine] | 97.4% | 
35 | OC[C@H]1O[C@@H](Oc2ccc(O)cc2)[C@H](O)[C@@H](O)[C@@H]1O [Arbutin] | 101% | 
36 | Nc1ccc(S(=O)(=O)c2ccc(N)cc2)cc1 [Dapsone] | 69.8% | 
37 | Nc1ccc(S(=O)(=O)c2ccc(N)cc2)cc1 | 85.7% | 
38 | OCCN1CCN(CCCN2c3ccccc3Sc3ccc(Cl)cc32)CC1 | 63.3% | 
39 | OCCN1CCN(CCCN2c3ccccc3Sc3ccc(Cl)cc32)CC1 [Perphenazine] | 75.7 ± 42% | 
40 | CN(C)CCc1c[nH]c2ccc(Cn3cncn3)cc12 | 74.5 ± 5.1% | 
41 | NCCCCCCCCCCN [1,10-Diaminodecane] | 80.6% | 
42 | O=c1oc(Cl)c(Cl)c2ccccc12 [3,4-Dichloroisocoumarin] | 90% | 
43 | N[C@H]1C(O)O[C@H](CO)[C@@H](O)[C@@H]1O (some centres not stated) | 87% | 
44 | C=C1C[C@H]2[C@@H]3C=C(C)C4=CC(=O)CC[C@]4(C)[C@H]3CC[C@]2(C)[C@@]1(OC(C)=O)C(C)=O | 52.9% | 
45 | C=C1C[C@H]2[C@@H]3C=C(C)C4=CC(=O)CC[C@]4(C)[C@H]3CC[C@]2(C)[C@@]1(OC(C)=O)C(C)=O [Melengestrol Acetate] | 72.6% | 
46 | C=C1C[C@H]2[C@@H]3C=C(C)C4=CC(=O)CC[C@]4(C)[C@H]3CC[C@]2(C)[C@@]1(OC(C)=O)C(C)=O [Melengestrol acetate] | 75.3% | 
47 | N=C(N)NC(=N)N1CCOCC1 [Moroxydine HCl] | 95.9% | 
48 | N=C(N)NC(=N)N1CCOCC1 | 84.7% | 
49 | CC(=O)Oc1cccc2c1C(=O)c1c(OC(C)=O)cc(C(=O)O)cc1C2=O [Diacerein] | 120% | 
50 | CC(=O)Oc1cccc2c1C(=O)c1c(OC(C)=O)cc(C(=O)O)cc1C2=O | 81.2% | 
51 | Cc1ncc(CSSCc2cnc(C)c(O)c2CO)c(CO)c1O | 102% | 
52 | CC(C)NC[C@@H](O)COc1cccc2ccccc12 [(R)-Propranolol hydrochloride] | 120% | 
53 | CC(C)NC[C@@H](O)COc1cccc2ccccc12 | 89.2% | 
54 | CCc1cn([C@H]2C[C@H](O)[C@@H](CO)O2)c(=O)[nH]c1=O | 107% | 
55 | CCc1cn([C@H]2C[C@H](O)[C@@H](CO)O2)c(=O)[nH]c1=O [5-Ethyl-2'-deoxyuridine ; Edoxudine] |  | 71.1%

Given comma-delimited: part of the list above
Row,SMILES,HMGB1-induced TNF-alpha production (compound concentration: 3 uM),HMGB1-induced TNF-alpha production [1]
31,Nc1ccc(C(=O)NCC(=O)O)cc1,110%,
32,Nc1ccc(C(=O)NCC(=O)O)cc1 [Aminohippuric acid],93.4%,
33,COc1ccc(NS(=O)(=O)c2ccc(N)cc2)nn1,84.7%,
